Results on 61 molecules are retold here after PubChem BioAssay AID2685 (National Center for Advancing Translational Sciences (NCATS), 2010).

The other results are listed elsewhere or left out. The main result of the screen is listed elsewhere. These columns were measured beside it and carry no call. Most of these compounds were active or inconclusive in the main read-out, so they are no random draw. Words in brackets tell the shape of the fitted curve; partial curves, single points and poor fits give uncertain potencies.

The nature of the experiment: qHTS Assay for Lipid Storage Modulators in Drosophila S3 Cells.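 On cell number change: cells counted by Cell Tracker Red CMTPX staining in the red channel.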 The conditions noted are these: BODIPY lipid droplet fluorescence, 18-24 h; for cell number change: measured here: cell count max response, cells fed with added oleic acid. The method in brief:
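Drosophila S3 cells loaded with oleic acid (400 uM, as added) and compounds at several concentrations; lipid droplets imaged by 488-nm laser-scanning cytometry, 500–530 nm intensity and object ratio to cell channel. Percent activity normalized to 20 uM Triacsin C.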

Where [1] appears, read: measured here: cell number channel AC50, cells fed with added oleic acid.
Setting [2] is: measured here: lipid fluorescence (Fed channel) AC50, cells fed with added oleic acid.

As to `CC(C)Cc1cc(C(=O)Nc2c(F)cc(F)cc2Br)no1`, the cell number change is -43.2%. Also, the AC50 under setting [1] is 18.4 µM [falling, single point]. Besides, under setting [2], the AC50 was 5.17 µM [falling, full curve].

`CCOCCSc1nc2c(c(=O)[nH]c(=O)n2C)n1CCCc1ccccc1`: the cell number change worked out at 10.5%. In addition, the AC50 under setting [1] is 3.66 µM [rising, single point].

`Cc1nc(SCC(=O)NCc2ccc3c(c2)OCO3)c(C#N)c2c1CCCC2`: the cell number change was -21.9%.

As for `Cn1c(=O)n(C)c2cc([N+](=O)[O-])c(N3CCN(C(=O)c4cccc(F)c4)CC3)cc21`, the cell number change is -3.18%.

On to `Cc1ccc(-c2nc3ccccc3c(=O)n2CCCn2ccnc2)cc1`, for which the cell number change was -7.22%. Under setting [2], the AC50 is 0.13 µM [falling, full curve, poor fit].

Consider `COc1ccc2sc(NCc3ccccc3)nc2c1`, for which the cell number change turned out to be 1.53%. Further, the AC50 under setting [2] is 29.1 µM [rising, single point].

As for `COc1ccc(NC(=O)CCC(=O)N2CCN(S(=O)(=O)c3ccc(C)cc3)CC2)c(OC)c1`, the cell number change is -85.5%. For the same molecule, under setting [1], the AC50 was 3.66 µM [rising, single point].

In the case of `COc1cc(NC(=O)CSc2nnc(-c3ccncc3)o2)cc(OC)c1OC`, the cell number change was 18.2%. In addition, the AC50 under setting [2] is 11.6 µM [rising, partial curve].

With `CCCCCCn1nc(C(=O)N(CC(C)C)c2c(N)n(CCCC)c(=O)[nH]c2=O)c2ccccc2c1=O`, the cell number change is -46.4%. For the same molecule, under setting [1], the AC50 is 29.1 µM [falling, single point]. Besides, under setting [2], the AC50 was 16.4 µM [falling, partial curve, poor fit].

In the case of `Cc1cnn(C(=O)c2ccccc2Br)c1`, the cell number change came out at 8.07%. Further, the AC50 under setting [2] is 20.6 µM [falling, single point].

On to `CN(Cc1cn(C)nc1-c1cccc(Cl)c1)Cc1nccn1C`, for which the cell number change was 26.6%. Moreover, under setting [2], the AC50 is 3.66 µM [rising, single point].

On to `Cc1ccccc1OCC(=O)OCC(=O)c1cc(C)n(C2CC2)c1C`, for which, under setting [2], the AC50 is 0.231 µM [rising, full curve, poor fit].

Turning to `Cc1ccccc1NC(=O)c1ccc2c(c1)N(C)CCS2`, the cell number change is 2.31%. The AC50 under setting [2] is 3.26 µM [falling, single point].

Regarding `O=C(COC(=O)C1CC2C=CC1C2)Nc1ccc2c(c1)OC(F)(F)O2` (centres undefined), the cell number change was -42.6%. Moreover, the AC50 under setting [1] is 10.3 µM [falling, partial curve]. Moreover, the AC50 under setting [2] was 11.6 µM [falling, partial curve].

On to `C=CCNC(=S)NNC(=O)C(CCCC)CC(C)O` (centres undefined), for which, under setting [2], the AC50 is 25.9 µM [falling, partial curve].

Consider `O=C(Nc1ccc(Cl)c(Cl)c1)OCc1cccnc1`, for which the cell number change was 98.7%. The AC50 under setting [1] was 7.31 µM [rising, partial curve]. Moreover, under setting [2], the AC50 is 5.17 µM [rising, partial curve].

In the case of `Cc1ccc(C(=O)N(CC(=O)NC2CCCCC2)c2ccccc2F)s1`, the cell number change is -13.2%. The AC50 under setting [2] is 5.17 µM [falling, full curve].

Take `O=C(NCCc1ccccn1)c1ccc(OC2CCN(CCc3ccccc3)CC2)cc1`: the cell number change was 53.3%. Moreover, the AC50 under setting [1] is 23.1 µM [rising, partial curve, poor fit].

For `Cc1ccc(-c2nnn(CC(=O)Nc3ccccc3N3CCOCC3)n2)cc1`, the cell number change was 14.2%. For the same molecule, under setting [1], the half-maximal activity concentration (AC50) was 0.146 µM [rising, full curve]. In addition, under setting [2], the AC50 was 0.326 µM [rising, full curve].

Consider `COc1ccc(C(=O)O/N=C(\N)c2ccccn2)cc1[N+](=O)[O-]`, for which the cell number change was -16.1%.

With `O=C1CSC(c2cn(-c3ccccc3)nc2-c2cccs2)N1CC1CCCO1` (centres undefined), the AC50 is 2.59 µM [rising, partial curve] under setting [1] and 3.26 µM [rising, partial curve] under setting [2].

In the case of `Cn1ccnc1/C(=N\NC(=O)c1ccccc1)c1cccc([N+](=O)[O-])c1`, the cell number change came out at 118%. Further, under setting [1], the AC50 was 18.4 µM [rising, single point].

Take `COc1cc(C(CCN2CCCCC2)c2c(OC)cc(OC)c3c(-c4ccccc4)cc(=O)oc23)cc(OC)c1OC` (centres undefined): the cell number change worked out at 5.89%. In addition, the AC50 under setting [1] was 0.13 µM [rising, full curve, poor fit]. For the same molecule, the AC50 under setting [2] was 2.06 µM [rising, partial curve].

Consider `CC1(C)CC(=O)C(C=Nc2ccccc2C(=O)O)=C(O)C1`, for which the cell number change is -13%. For the same molecule, under setting [2], the concentration at half-maximal activity (AC50) was 32.6 µM [falling, single point].

Regarding `Cc1ccc(S(=O)(=O)N2CCN(C(=O)C(Cc3ccccc3)NC(=O)c3ccccc3)CC2)cc1` (centres undefined), the cell number change came to 1.88%. Moreover, the AC50 under setting [2] was 29.1 µM [rising, single point].

`CC1CCN(C(=O)COC(=O)Cn2cnc3c2c(=O)n(C)c(=O)n3C)CC1`: the cell number change is -16.5%.

As to `Cc1ccc(-n2nc(C)c(NC(=O)CCl)c2C)cc1C`, the cell number change is -33.8%. Further, the AC50 under setting [1] is 29.1 µM [falling, single point]. Further, the AC50 under setting [2] is 18.4 µM [falling, single point].

For the molecule `CN(CCOC(=O)/C=C/c1ccccc1)C(C)(C)C`, the cell number change was -9.28%. For the same molecule, the AC50 under setting [2] was 3.66 µM [falling, full curve, poor fit].

For the molecule `O=C(c1cc2c(s1)-c1ccccc1OC2)N1CCN(c2ccccc2)CC1`, the cell number change came out at 23.1%. For the same molecule, the AC50 under setting [2] is 9.2 µM [rising, single point].

Regarding `COC(=O)CCC(=O)Nc1nnc(C(F)(F)F)s1`, the cell number change was -10.8%.

`O=C1/C(=C/c2ccccc2Cl)SC(=S)N1CCC(=O)N1CCCCC1CCO` (centres undefined): the cell number change was -10.9%.

For the molecule `O=C(Nc1c(F)cccc1F)C1CCN(C(=O)c2cccs2)CC1`, the cell number change is 15.8%.

With `Cc1ccc(NC(=O)Nc2ccc3c(c2)OCO3)cc1F`, the cell number change stood at 24.2%.

For `Cc1ccc(NC(=O)CCC(=O)NNC(=O)/C=C/C(=O)O)c(C)c1`, the cell number change stood at 31.8%. Moreover, under setting [1], the AC50 is 6.51 µM [rising, single point]. For the same molecule, the AC50 under setting [2] is 2.59 µM [rising, partial curve, poor fit].

As to `CCCc1cc(=O)oc2cc(C)cc(OC(C)C(=O)N[C@@H](Cc3c[nH]c4ccccc34)C(=O)O)c12` (some centres undefined), the cell number change turned out to be 9.93%.

As to `CCN(CC)c1ccc(C(=O)Nn2cnc3ccccc3c2=O)cc1`, the cell number change is 50.4%. The AC50 under setting [1] was 20.6 µM [rising, partial curve].

Take `CCc1noc(C)c1C(=O)Nc1cccc(S(=O)(=O)N2CCCCCC2)c1`: the cell number change was -4.16%.

With `Cc1ccc(OCCC(=O)OCC(=O)Nc2ccc3c(c2)OCCO3)cc1`, the cell number change was 5.22%.

On to `CC1(C)CC(=O)C(C2NCCc3ccccc32)=C(O)C1` (centres undefined), for which the cell number change is -5.9%. In addition, under setting [2], the AC50 was 1.16 µM [falling, full curve].

With `COc1ccc(OC)c(NC(=O)COc2ccc(S(=O)(=O)N3CCCC3)cc2)c1`, the cell number change was -31.6%. In addition, under setting [1], the AC50 was 2.06 µM [falling, partial curve, poor fit]. Under setting [2], the AC50 is 5.62 µM [falling, single point].

`CCNC(=S)NNC(=S)NCc1ccccc1`: the cell number change turned out to be 11.5%. The AC50 under setting [1] is 2.31 µM [falling, single point].

Regarding `CC(=O)Nc1ccc(Nc2cc(C)nc3c(-c4ccccc4)c(C)nn23)cc1`, the cell number change came out at 2.87%. Besides, the AC50 under setting [2] was 0.366 µM [rising, partial curve, poor fit].

On to `CNC(=O)c1cc(Nc2nnc(-c3ccc(C)c(S(N)(=O)=O)c3)c3ccccc23)ccc1OC`, for which the cell number change turned out to be 60.3%. In addition, the AC50 under setting [1] was 29.1 µM [rising, single point].

As for `CCC(C)NC(=O)c1ccc(NS(=O)(=O)c2ccc3[nH]c(=O)[nH]c3c2)cc1` (centres undefined), the cell number change was 16.2%.

Take `O=C(C1CCC(CNS(=O)(=O)c2cccc3cccnc23)CC1)N1CCc2ccccc21` (centres undefined): the cell number change was 8.21%. Also, under setting [1], the AC50 was 3.26 µM [rising, single point]. Also, under setting [2], the AC50 was 6.51 µM [rising, single point].

Regarding `Cc1cc(=O)c(C(=O)O)nn1-c1ccccc1[N+](=O)[O-]`, the cell number change stood at 21%.

`COc1cccc(C(=O)Nc2cccc(S(=O)(=O)NC3=NCCC3)c2)c1`: the cell number change worked out at 6.51%. Moreover, the AC50 under setting [2] was 0.146 µM [rising, full curve, poor fit].

`CCN(CC)c1ccc(/C=N/OCC(=O)Nc2cccc(C)c2)cc1`: the cell number change was -11.8%. Also, the AC50 under setting [1] was 6.51 µM [falling, single point].

As for `Nc1ncnc(Oc2ccccc2F)c1[N+](=O)[O-]`, the cell number change is -33.2%. The AC50 under setting [1] was 29.1 µM [falling, single point]. Further, the AC50 under setting [2] is 29.1 µM [falling, single point].

With `C=CCN1C(=O)C(Cc2ccccc2)S/C1=N/N=C/c1cccs1` (centres undefined), the cell number change was 32.3%. Under setting [1], the AC50 is 2.06 µM [rising, partial curve, poor fit]. The AC50 under setting [2] was 18.4 µM [rising, partial curve].

For the molecule `Cc1cccc(CCNS(=O)(=O)c2ccc3c(c2)NC(=O)CS3)c1`, the cell number change is -2.95%.

Regarding `COc1cc2c(cc1OC)C(C)N(C(=O)c1sc(-c3cnccn3)nc1C)CC2` (centres undefined), the cell number change is 23.7%. Besides, the AC50 under setting [2] was 29.1 µM [rising, single point].

As for `COC(=O)CSC(=S)N1CCCC(C)C1` (centres undefined), the cell number change is -71.2%. Besides, the AC50 under setting [1] was 20.6 µM [falling, single point]. Under setting [2], the AC50 is 20.6 µM [falling, single point].

On to `CC(=O)N(C)N(C)c1cc(C)nc(N)n1`, for which the cell number change came out at 23.7%. Also, the AC50 under setting [2] was 29.1 µM [rising, partial curve].

In the case of `CN1CCN(C(=O)c2cccn(Cc3ccc(C(F)(F)F)cc3)c2=O)CC1`, the cell number change is 14.3%. Besides, the AC50 under setting [2] was 0.82 µM [rising, full curve, poor fit].

`Cc1ccc(NC(=O)Cn2nnc(C(=O)NCc3cccs3)c2N)c(C)c1`: the cell number change is -4.18%. Under setting [2], the AC50 was 4.61 µM [falling, single point].

Turning to `CN1CCN(S(=O)(=O)c2cccc3nsnc23)CC1`, the cell number change was -1.32%.

Take `CCOC(=O)Nc1ccc2c(c1)N(C(=O)CN1CCN(CCO)CC1)c1ccccc1CC2`: the cell number change was -2.7%. For the same molecule, under setting [2], the AC50 is 29.1 µM [falling, single point].

As for `COCc1cc([C@@H]2C[C@H]3CN(c4ccccc4)C(=O)[C@]34CCCN24)ccc1OC`, the cell number change is 6.55%. Moreover, the AC50 under setting [2] is 3.26 µM [rising, single point].

In the case of `Cc1cc(Br)c(S(=O)(=O)NCc2ccncc2)cc1C`, the cell number change was -45.9%. For the same molecule, the concentration at half-maximal activity (AC50) under setting [1] is 13 µM [falling, partial curve]. The AC50 under setting [2] was 10.3 µM [falling, partial curve].

For the molecule `O=C(COc1ccc2c3c(c(=O)oc2c1)CCC3)Nc1ccc(CCO)cc1`, the cell number change is -19.5%. Besides, the AC50 under setting [2] was 10.3 µM [rising, partial curve].
